Assay results reported in PubChem BioAssay AID256 (DTP/NCI, 2004).
The list is a part of this screen's results and no random one: it gathers tests that were run many times, whatever their T/C, doses with no T/C, and many T/C values between a quarter and a half above the control. Further doses and runs are listed elsewhere. T/C is the treated group as % of the vehicle group. Some doses have a count of surviving animals in place of a T/C: the source files T/C as zero there, which appears to mark a toxic dose or a test without result, not a measured value. Some doses without a T/C left all or most animals alive at the check, yet need not have been tolerated: survival well below the control is almost never listed, so the zero probably covers shortened survival too. Survivors were counted at the toxicity check, usually on the fifth day, unless a day is given; later deaths do not show. Schedules are NCI's codes, read here as Q, the interval in days (D) or hours (H), X, the number of doses. Some doses were run more than once; the results are listed from low to high. For survival time, the PubChem record calls one and a half times the control and up active, and a quarter to a half above the control has no call in these data; cut-offs in other NCI protocols can differ.

Test system: CD2F1 mice, L1210 leukemia ip, survival T/C
Experiment: NCI In Vivo Anticancer Drug Screen. Data for tumor model L1210 Leukemia (intraperitoneal) in CD2F1 (CDF1) mice
Details: higher T/C = longer survival
In short: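 Implant tumor; dose compound or vehicle; measure endpoint in both groups; report treated divided by control.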

[1] = T/C endpoint: mean survival time, dose: 200.0 mg/kg/injection, schedule: Q04DX003 (ip), vehicle: saline with Tween-80
[2] = T/C endpoint: mean survival time, dose: 400.0 mg/kg/injection, schedule: Q04DX003 (ip), vehicle: saline with Tween-80
[3] = T/C endpoint: mean survival time, dose: 100.0 mg/kg/injection, schedule: Q04DX003 (ip), vehicle: saline with Tween-80
[4] = T/C endpoint: mean survival time, dose: 25.0 mg/kg/injection, schedule: Q04DX003 (ip), vehicle: saline with Tween-80
[5] = T/C endpoint: mean survival time, dose: 50.0 mg/kg/injection, schedule: Q01DX001 (ip), vehicle: saline with Tween-80
[6] = T/C endpoint: mean survival time, dose: 100.0 mg/kg/injection, schedule: Q01DX001 (ip), vehicle: saline with Tween-80
[7] = T/C endpoint: mean survival time, dose: 100.0 mg/kg/injection, schedule: Q04DX002 (ip), vehicle: saline
[8] = T/C endpoint: mean survival time, dose: 200.0 mg/kg/injection, schedule: Q04DX002 (ip), vehicle: saline
[9] = T/C endpoint: mean survival time, dose: 400.0 mg/kg/injection, schedule: Q04DX002 (ip), vehicle: saline
[10] = T/C endpoint: mean survival time, dose: 100.0 mg/kg/injection, schedule: Q04DX002 (ip), vehicle: saline with Tween-80
[11] = T/C endpoint: mean survival time, dose: 400.0 mg/kg/injection, schedule: Q01DX001 (ip), vehicle: saline with Tween-80

[O-][n+]1cccc2ccc3ccccc3c21
survivor count (T/C endpoint: mean survival time, dose: 200.0 mg/kg/injection, schedule: Q01DX009 (ip), vehicle: other): 0 of 3

NNC(=O)c1ccc([N+](=O)[O-])o1
survivor count (T/C endpoint: mean survival time, dose: 75.0 mg/kg/injection, schedule: Q01DX009 (ip), vehicle: saline with Tween-80): 3 of 6
survivor count (T/C endpoint: mean survival time, dose: 150.0 mg/kg/injection, schedule: Q01DX009 (ip), vehicle: saline with Tween-80): 0 of 6
survivor count [1]: 5 of 6
survivor count [2]: 3 of 6

Clc1ccccc1C(Nc1cnccn1)Nc1cnccn1
survivor count (T/C endpoint: median survival time, dose: 400.0 mg/kg/injection, schedule: Q01DX009 (ip), vehicle: saline with Tween-80): 2 of 6

Nc1cccc(NC=O)c1
survivor count (T/C endpoint: mean survival time, dose: 200.0 mg/kg/injection, schedule: Q04DX003 (ip), vehicle: Klucel (hydroxypropylcellulose) (HPC)): 0 of 6
survivor count (T/C endpoint: mean survival time, dose: 400.0 mg/kg/injection, schedule: Q04DX003 (ip), vehicle: Klucel (hydroxypropylcellulose) (HPC)): 0 of 6

COc1ccc(NC(=O)Nc2ccc(Br)cc2)cc1
survivor count [2]: 5 of 6

O=C1C=C(N2CCOCC2)C(=O)c2nccnc21
survivor count [3]: 0 of 6

C[N+](C)(CC(=O)Nc1ccc(Cl)c(Cl)c1)CC(=O)c1ccc(Cl)cc1
survivor count (T/C endpoint: mean survival time, dose: 50.0 mg/kg/injection, schedule: Q01DX009 (ip), vehicle: saline): 6 of 6
survivor count (T/C endpoint: mean survival time, dose: 100.0 mg/kg/injection, schedule: Q01DX009 (ip), vehicle: saline): 5 of 6

C=CCOCC(O)C[As](=O)(O)c1cccc(Cl)c1 (stereo unspecified)
survivor count [4]: 6 of 6

C[n+]1ccccc1/C=C/c1ccccn1
survivor count (T/C endpoint: mean survival time, dose: 100.0 mg/kg/injection, schedule: Q04DX003 (ip), vehicle: saline sonified): 1 of 6
survivor count (T/C endpoint: mean survival time, dose: 200.0 mg/kg/injection, schedule: Q04DX003 (ip), vehicle: saline sonified): 0 of 6
survivor count (T/C endpoint: mean survival time, dose: 400.0 mg/kg/injection, schedule: Q04DX003 (ip), vehicle: saline sonified): 0 of 6

C#CCOCC(O)C[As](=O)(O)c1ccc(Cl)cc1 (stereo unspecified)
survivor count (T/C endpoint: mean survival time, dose: 25.0 mg/kg/injection, schedule: Q01DX001 (ip), vehicle: saline with Tween-80): 1 of 6
survivor count [5]: 0 of 6
survivor count [6]: 0 of 6

N#CC1(NC(=O)N(CCCl)N=O)CCCCC1
T/C (T/C endpoint: mean survival time, dose: 12.5 mg/kg/injection, schedule: Q01DX001 (ip), vehicle: distilled water + Tween-80, evaluated on day 30): 126 % of control
T/C (T/C endpoint: mean survival time, dose: 12.5 mg/kg/injection, schedule: Q01DX001 (ip), vehicle: distilled water + Tween-80, evaluated on day 40): 130 % of control
T/C (T/C endpoint: mean survival time, dose: 25.0 mg/kg/injection, schedule: Q01DX001 (ip), vehicle: distilled water + Tween-80): 145 % of control
survivor count (T/C endpoint: mean survival time, dose: 100.0 mg/kg/injection, schedule: Q01DX001 (ip), vehicle: distilled water + Tween-80): 0 of 6 and 1 of 6

CSC(=S)NN=C(C)C
survivor count (T/C endpoint: mean survival time, dose: 3.13 mg/kg/injection, schedule: Q01DX009 (ip), vehicle: saline sonified): 6 of 6
survivor count [4]: 2 of 6
survivor count [3]: 1 of 6
survivor count [1]: 1 of 6
survivor count [2]: 0 of 6

C[n+]1ccc(Cc2ccccc2)cc1
survivor count [7]: 0 of 3
survivor count [8]: 0 of 3
survivor count [9]: 0 of 3

O=S(O)C(=Nc1ccccc1)Nc1ccccc1
survivor count (T/C endpoint: mean survival time, dose: 400.0 mg/kg/injection, schedule: Q01DX009 (ip), vehicle: saline with Tween-80): 0 of 6

CC(C)=C/C(C)=C(/C#N)C(=O)OC(C)C
survivor count (T/C endpoint: mean survival time, dose: 300.0 mg/kg/injection, schedule: Q01DX001 (ip), vehicle: saline): 2 of 6

Cc1cc(Nc2ccccc2)nc(C)n1
survivor count (T/C endpoint: mean survival time, dose: 50.0 mg/kg/injection, schedule: Q04DX002 (ip), vehicle: saline with Tween-80): 0 of 3
survivor count [10]: 0 of 3
survivor count (T/C endpoint: mean survival time, dose: 200.0 mg/kg/injection, schedule: Q04DX002 (ip), vehicle: saline with Tween-80): 3 of 3
survivor count (T/C endpoint: mean survival time, dose: 400.0 mg/kg/injection, schedule: Q04DX002 (ip), vehicle: saline with Tween-80): 1 of 3

Cc1cc(=O)c2ccccc2n1C
survivor count [7]: 0 of 3
survivor count [8]: 0 of 3
survivor count [9]: 0 of 3

CCCCCCCCCCCCCCCc1ccc(C(=O)C[n+]2ccccc2)cc1
T/C (T/C endpoint: mean survival time, dose: 25.0 mg/kg/injection, schedule: Q01DX009 (ip), vehicle: saline with Tween-80): 127 % of control
survivor count (T/C endpoint: mean survival time, dose: 50.0 mg/kg/injection, schedule: Q01DX009 (ip), vehicle: saline with Tween-80): 2 of 6
survivor count [3]: 6 of 6
survivor count [1]: 0 of 6
survivor count [2]: 0 of 6

CCCCCCCCCCCCCCCCOc1ccccc1/C=N/O
survivor count (T/C endpoint: mean survival time, dose: 400.0 mg/kg/injection, schedule: Q01DX009 (ip), vehicle: Klucel (hydroxypropylcellulose) (HPC)): 6 of 6

CCC12C[N+]3([O-])CCc4c([nH]c5ccccc45)C(C(=O)OC)(c4cc5c(cc4OC)N(C)C4C(O)(C(=O)OC)C(OC(C)=O)C6(CC)C=CCN7CCC54C76)CC(C3)C1O2 (stereo unspecified)
T/C (T/C endpoint: median survival time, dose: 10.0 mg/kg/injection, schedule: Q01DX009 (ip), vehicle: water): 133 % of control

CCC(C)C1NC(=O)C(NC(=O)c2c3nc4c(C(=O)NC5C(=O)NC(C(C)CC)C(=O)N6CCCC6C(=O)N(C)CC(=O)N(C)C(C(C)C)C(=O)OC5C)ccc(C)c4oc-3c(C)c(=O)c2N)C(C)OC(=O)C(C(C)C)N(C)C(=O)CN(C)C(=O)C2CCCN2C1=O (stereo unspecified)
T/C (T/C endpoint: mean survival time, dose: 1.0 mg/kg/injection, schedule: Q01DX001 (ip), vehicle: saline): 132 % of control
T/C (T/C endpoint: mean survival time, dose: 2.0 mg/kg/injection, schedule: Q01DX001 (ip), vehicle: saline): 138 % of control

COc1cc(-c2ccc(N=Nc3c(O)ccc4ccccc34)c(OC)c2)ccc1N=Nc1ccc2c(S(=O)(=O)O)cc(S(=O)(=O)O)c(N)c2c1O
survivor count (T/C endpoint: mean survival time, dose: 400.0 mg/kg/injection, schedule: Q04DX003 (ip), vehicle: saline): 3 of 6

COCCOCCN1CCN(CCCN2c3ccccc3Sc3ccc(C(F)(F)F)cc32)CC1
survivor count (T/C endpoint: mean survival time, dose: 75.0 mg/kg/injection, schedule: Q04DX003 (ip), vehicle: saline): 3 of 6

COc1ccc(N2C(=O)C=CC2=O)cc1
survivor count [5]: 0 of 3
survivor count [6]: 0 of 3

CC#CCOCC(O)CCl (stereo unspecified)
survivor count (T/C endpoint: median survival time, dose: 400.0 mg/kg/injection, schedule: Q01DX005 (ip), vehicle: suspension in saline): 5 of 6
survivor count (T/C endpoint: median survival time, dose: 800.0 mg/kg/injection, schedule: Q01DX005 (ip), vehicle: saline): 2 of 6
survivor count (T/C endpoint: median survival time, dose: 800.0 mg/kg/injection, schedule: Q01DX005 (ip), vehicle: suspension in saline): 0 of 6

COC1C(O)C(C)OC(O[C@@H]2C[C@H]3CC[C@@H]4[C@H](CC[C@]5(C)[C@@H](C6=CC(=O)OC6)CC[C@]45O)[C@@]3(C)[C@H](O)C2)C1O (stereo partly specified)
survivor count (T/C endpoint: mean survival time, dose: 300.0 mg/kg/injection, schedule: Q01DX001 (ip), vehicle: other): 0 of 6

CN(C)C(=O)/C=C/c1c[nH]c(=O)[nH]c1=O
survivor count [6]: 1 of 6
survivor count (T/C endpoint: mean survival time, dose: 200.0 mg/kg/injection, schedule: Q01DX001 (ip), vehicle: saline with Tween-80): 3 of 6
survivor count [11]: 0 of 6

C=C(C)C1CCC2(COS(=O)(=O)c3ccc(C)cc3)CCC3(C)C(CCC4C5(C)CCC(OC6CCCCO6)C(C)(C)C5CCC43C)C12 (stereo unspecified)
survivor count [10]: 3 of 3

CCCCCNc1ncnc2c(C)[nH]nc12
survivor count (T/C endpoint: median survival time, dose: 400.0 mg/kg/injection, schedule: Q01DX009 (ip), vehicle: Klucel (hydroxypropylcellulose) (HPC)): 4 of 6

NS(=O)(=O)c1ccc(Cl)c2ccccc12
survivor count [11]: 3 of 6

CN(C)C=NCCc1ccccc1
survivor count (T/C endpoint: mean survival time, dose: 100.0 mg/kg/injection, schedule: Q01DX001 (ip), vehicle: saline): 1 of 4
survivor count (T/C endpoint: mean survival time, dose: 200.0 mg/kg/injection, schedule: Q01DX001 (ip), vehicle: saline): 0 of 4
survivor count (T/C endpoint: mean survival time, dose: 400.0 mg/kg/injection, schedule: Q01DX001 (ip), vehicle: saline): 0 of 4

O=c1cc(C(F)(F)F)[nH]c2ccc(F)cc12
survivor count [3]: 1 of 6
survivor count [1]: 0 of 6
survivor count [2]: 0 of 6

CC(=O)CC(Br)CBr (stereo unspecified)
survivor count [1]: 4 of 6
survivor count [2]: 0 of 6
